# Experimental data from article PMC8546722.
# The chains behind the UniProt entries cited, without tags or fusion partners.
# UniProt O06942: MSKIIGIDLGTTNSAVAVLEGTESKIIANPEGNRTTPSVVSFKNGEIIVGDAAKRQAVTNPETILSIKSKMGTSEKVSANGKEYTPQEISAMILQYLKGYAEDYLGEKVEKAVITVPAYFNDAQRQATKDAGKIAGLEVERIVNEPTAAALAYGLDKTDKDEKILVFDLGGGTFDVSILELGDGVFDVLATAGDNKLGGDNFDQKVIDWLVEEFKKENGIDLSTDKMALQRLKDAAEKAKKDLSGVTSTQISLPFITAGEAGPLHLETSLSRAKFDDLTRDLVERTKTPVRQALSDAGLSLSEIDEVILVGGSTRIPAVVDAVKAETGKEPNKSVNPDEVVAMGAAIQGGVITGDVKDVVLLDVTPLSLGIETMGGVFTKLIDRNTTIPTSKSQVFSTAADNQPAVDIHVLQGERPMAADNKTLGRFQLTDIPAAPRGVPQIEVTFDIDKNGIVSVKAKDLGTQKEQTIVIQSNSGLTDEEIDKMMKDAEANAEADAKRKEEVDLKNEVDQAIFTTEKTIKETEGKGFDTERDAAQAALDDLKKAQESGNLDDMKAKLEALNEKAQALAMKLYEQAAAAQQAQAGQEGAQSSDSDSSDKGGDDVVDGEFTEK
# No constants are given. Whether binding was seen depends on the method and setting. For some of these results: Binding calls can cover weak binding; strength is not graded here. For some of these results: Tags and fused reporters may be left off the sequences shown.
# T1: T25-YidC1 (full-length YidC1, two-hybrid fusion) (Streptococcus mutans) (UniProt Q8DVX3)
# T1 sequence: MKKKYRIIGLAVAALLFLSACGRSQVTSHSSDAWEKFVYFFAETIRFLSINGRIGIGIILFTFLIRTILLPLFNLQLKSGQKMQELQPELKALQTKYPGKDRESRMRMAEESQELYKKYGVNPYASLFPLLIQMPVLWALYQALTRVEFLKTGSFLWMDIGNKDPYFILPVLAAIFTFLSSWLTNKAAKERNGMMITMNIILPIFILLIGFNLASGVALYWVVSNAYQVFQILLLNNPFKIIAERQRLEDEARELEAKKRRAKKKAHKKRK
# T2: T25-YidC2 (full-length YidC2, two-hybrid fusion) (Streptococcus mutans) (UniProt Q8DSP8)
# T2 sequence: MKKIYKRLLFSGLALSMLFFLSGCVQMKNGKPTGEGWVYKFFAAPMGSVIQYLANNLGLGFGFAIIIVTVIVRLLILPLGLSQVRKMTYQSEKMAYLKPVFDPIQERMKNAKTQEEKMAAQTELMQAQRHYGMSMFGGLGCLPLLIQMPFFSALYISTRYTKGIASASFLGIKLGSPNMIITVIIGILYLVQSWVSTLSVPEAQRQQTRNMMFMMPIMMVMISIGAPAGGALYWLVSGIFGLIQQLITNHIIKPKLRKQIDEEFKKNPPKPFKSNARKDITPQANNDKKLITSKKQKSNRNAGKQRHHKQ
# T3: Ffh (two-hybrid fusion) (Streptococcus mutans) (UniProt Q54431)
# T3 sequence: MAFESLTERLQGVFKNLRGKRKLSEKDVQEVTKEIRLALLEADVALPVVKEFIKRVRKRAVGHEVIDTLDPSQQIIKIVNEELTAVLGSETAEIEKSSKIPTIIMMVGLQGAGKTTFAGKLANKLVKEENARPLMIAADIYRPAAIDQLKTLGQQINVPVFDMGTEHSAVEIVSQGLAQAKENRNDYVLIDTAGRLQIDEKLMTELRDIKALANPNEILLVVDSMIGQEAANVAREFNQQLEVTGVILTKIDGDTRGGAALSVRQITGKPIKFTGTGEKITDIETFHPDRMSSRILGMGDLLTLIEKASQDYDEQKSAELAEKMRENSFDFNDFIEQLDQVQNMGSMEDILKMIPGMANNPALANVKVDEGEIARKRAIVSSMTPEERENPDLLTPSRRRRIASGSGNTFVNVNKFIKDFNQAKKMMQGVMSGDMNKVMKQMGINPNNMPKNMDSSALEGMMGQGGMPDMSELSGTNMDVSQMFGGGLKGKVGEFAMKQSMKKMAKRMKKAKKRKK
# What was measured:
# [1] = molecular target: YidC2 C-terminal tail (two-hybrid fusion) (Streptococcus mutans) (UniProt Q8DSP8); assay: two-hybrid
# [2] = molecular target: YidC1 C-terminal tail (two-hybrid fusion) (Streptococcus mutans) (UniProt Q8DVX3); assay: two-hybrid
# [3] = molecular target: YidC2 C-terminal tail (two-hybrid fusion) (Streptococcus mutans) (UniProt Q8DSP8); assay: two-hybrid; bacterial two-hybrid (BACTH): T25 (pKT25) and T18 (pUT18C) fusions cotransformed in E. coli cya mutant BTH101; blue colour on LB agar with X-gal and 0.5 mM IPTG, 48 h at 30°C
# [4] = molecular target: YidC1 C-terminal tail (two-hybrid fusion) (Streptococcus mutans) (UniProt Q8DVX3); assay: as above
# [5] = molecular target: T1, T25-YidC1 (full-length YidC1, two-hybrid fusion) (Streptococcus mutans); assay: two-hybrid
# [6] = molecular target: T2, T25-YidC2 (full-length YidC2, two-hybrid fusion) (Streptococcus mutans); assay: two-hybrid; bacterial two-hybrid (BACTH): T25 (pKT25) and T18 (pUT18C) fusions cotransformed in E. coli cya mutant BTH101; blue colour on LB agar with X-gal and 0.5 mM IPTG, 48 h at 30°C
# [7] = molecular target: T3, Ffh (two-hybrid fusion) (Streptococcus mutans); assay: two-hybrid
# [8] = molecular target: T1, T25-YidC1 (full-length YidC1, two-hybrid fusion) (Streptococcus mutans); assay: two-hybrid; bacterial two-hybrid (BACTH): T25 (pKT25) and T18 (pUT18C) fusions cotransformed in E. coli cya mutant BTH101; blue colour on LB agar with X-gal and 0.5 mM IPTG, 48 h at 30°C
# [9] = molecular target: YidC2 C-terminal tail (two-hybrid fusion) (Streptococcus mutans) (UniProt Q8DSP8); assay: as above; remark: listed apart in the source
# [10] = molecular target: YidC1 C-terminal tail (two-hybrid fusion) (Streptococcus mutans) (UniProt Q8DVX3); assay: as above; remark: listed apart in the source
# [11] = molecular target: YidC2 C-terminal tail (two-hybrid fusion) (Streptococcus mutans), Q8DSP8; assay: as above; conditions: remark: other sources report otherwise
molecule,measurement,setting,value
T18C-LemA (two-hybrid fusion) (from UniProt Q93D94 1-186),binding,[1],binds
same,binding,[2],binds
DnaK (two-hybrid fusion) (from UniProt O06942 1-612),binding,[3],binds
same,binding,[4],binds
RopA (trigger factor) (two-hybrid fusion) (Streptococcus mutans),binding,[5],binds
same,binding,[6],binds
SecG (two-hybrid fusion) (Streptococcus mutans),binding,[7],binds
YajC (two-hybrid fusion) (from UniProt Q8DSJ6),binding,[7],binds
ribosomal protein L2 (two-hybrid fusion) (Streptococcus mutans),binding,[6],no binding
same,binding,[8],no binding
"FtsY (two-hybrid fusion) (protein, UniProt Q8CWX8 1-498) MGLFNRLFGKKRQEEKSTTDSIEEAAEQEVTQEKPALLAETAETAESQQSVYEKDVTESQAEQVSDARIIEDGQNSKEPAASGHSVQEHKQQPVQHQQEVFHSENSVAAVQNNTETMPSQQKKDEKPNQSPDFMAEYYARKAELAQKVESQKPAETAEQESQTTLSDQKETETAVNQSEEEASSQIAESVESEEEKYNRSLKKTRTGFGARLNAFLANFRNVDEEFFEDLEEMLILSDVGVQVASTLTEDLRYEAKLEKAKKPEALRRVIIEKLVDIYDKDGQFNEKINFQNDLTVMLFVGVNGVGKTTSIGKLAYKYKHQGKKVMLVAADTFRAGAVAQLAEWGRRVDVPVVTGPKNADPASVVYDGVERAVAADVDILMIDTAGRLQNKDNLMAELEKIGRVVKRVIPDAPHETLLTLDASTGQNALVQAKEFSKITPLTGLILTKIDGTAKGGVVLAIRQELAIPVKFIGFGEKIDDIGEFHSEDFMRGLLEGLL",binding,[9],binds
same,binding,[10],binds
"Ffh (two-hybrid fusion), Q54431 1-516 (protein) MAFESLTERLQGVFKNLRGKRKLSEKDVQEVTKEIRLALLEADVALPVVKEFIKRVRKRAVGHEVIDTLDPSQQIIKIVNEELTAVLGSETAEIEKSSKIPTIIMMVGLQGAGKTTFAGKLANKLVKEENARPLMIAADIYRPAAIDQLKTLGQQINVPVFDMGTEHSAVEIVSQGLAQAKENRNDYVLIDTAGRLQIDEKLMTELRDIKALANPNEILLVVDSMIGQEAANVAREFNQQLEVTGVILTKIDGDTRGGAALSVRQITGKPIKFTGTGEKITDIETFHPDRMSSRILGMGDLLTLIEKASQDYDEQKSAELAEKMRENSFDFNDFIEQLDQVQNMGSMEDILKMIPGMANNPALANVKVDEGEIARKRAIVSSMTPEERENPDLLTPSRRRRIASGSGNTFVNVNKFIKDFNQAKKMMQGVMSGDMNKVMKQMGINPNNMPKNMDSSALEGMMGQGGMPDMSELSGTNMDVSQMFGGGLKGKVGEFAMKQSMKKMAKRMKKAKKRKK",binding,[11],no binding
